Some of the results follow.
Columns and labels:
Test in all cases: log2 fold change, soluble protein after heating vs DMSO (PISA); higher = thermal stabilisation; K562 cells, 10 uM, 30 min; active = over 0.2 and 3.5 SD of the protein, either way, in both replicates (recomputed)
[1] = compound: C1=CC=C(C=C1)[C@H](COC2=CC3=C(C=C2)NC(=O)N3)NC(=O)C4=CC=CN(C4=O)CC5=CC(=C(C=C5)F)F
Procedure, shortened: (§1)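 Thermal stability values are relative to control samples and come from duplicates. They are expressed as log2 fold changes. For measurement, K562 cells (2×10^6 cells/mL) received 10 μM compound for 30 min, and aliquots were heated for 3 min over 48°C-58°C, pooled, and extracted at 4°C in PBS with 0.5% NP-40. Soluble protein, the supernatant after 21,000xg for 90 min, was quantified by TMTpro 16plex LC-MS/MS with equalised channel sums.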

Amino acid sequences for entries named in this document (tags omitted). A change or cut given only in a name is not applied to a line headed by its entry.
UniProt Q92692, whole entry, looked up: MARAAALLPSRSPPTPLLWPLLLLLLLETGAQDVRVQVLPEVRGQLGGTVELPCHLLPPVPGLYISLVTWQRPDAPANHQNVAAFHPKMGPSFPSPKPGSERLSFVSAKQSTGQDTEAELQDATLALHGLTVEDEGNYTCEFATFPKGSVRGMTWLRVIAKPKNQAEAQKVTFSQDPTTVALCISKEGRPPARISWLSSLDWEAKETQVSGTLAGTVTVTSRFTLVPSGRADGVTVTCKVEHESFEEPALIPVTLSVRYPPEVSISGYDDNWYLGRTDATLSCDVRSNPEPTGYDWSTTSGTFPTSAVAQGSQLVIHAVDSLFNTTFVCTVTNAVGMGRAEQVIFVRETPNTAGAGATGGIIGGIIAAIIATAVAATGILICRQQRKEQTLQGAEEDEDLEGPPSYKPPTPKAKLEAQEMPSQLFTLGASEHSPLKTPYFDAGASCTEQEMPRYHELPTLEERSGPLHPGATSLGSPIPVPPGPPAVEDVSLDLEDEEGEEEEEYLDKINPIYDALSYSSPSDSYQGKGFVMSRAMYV
UniProt O75489, whole entry, looked up: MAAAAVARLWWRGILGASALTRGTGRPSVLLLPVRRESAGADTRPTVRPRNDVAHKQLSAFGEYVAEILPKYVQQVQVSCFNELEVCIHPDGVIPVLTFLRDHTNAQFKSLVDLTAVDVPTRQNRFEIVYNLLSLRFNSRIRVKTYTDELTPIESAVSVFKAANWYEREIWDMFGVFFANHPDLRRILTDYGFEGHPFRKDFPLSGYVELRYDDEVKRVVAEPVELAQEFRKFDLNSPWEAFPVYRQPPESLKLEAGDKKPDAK
UniProt Q9NXR1: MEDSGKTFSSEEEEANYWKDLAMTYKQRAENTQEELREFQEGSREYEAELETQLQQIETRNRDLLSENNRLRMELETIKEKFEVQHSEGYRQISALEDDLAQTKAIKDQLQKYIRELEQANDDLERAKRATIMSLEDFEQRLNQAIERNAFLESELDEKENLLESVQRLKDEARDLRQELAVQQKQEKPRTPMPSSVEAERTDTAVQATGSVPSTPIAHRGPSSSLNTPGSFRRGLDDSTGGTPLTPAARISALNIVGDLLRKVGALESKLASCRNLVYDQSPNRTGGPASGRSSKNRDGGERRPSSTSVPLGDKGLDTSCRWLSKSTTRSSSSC
UniProt Q9UHQ1: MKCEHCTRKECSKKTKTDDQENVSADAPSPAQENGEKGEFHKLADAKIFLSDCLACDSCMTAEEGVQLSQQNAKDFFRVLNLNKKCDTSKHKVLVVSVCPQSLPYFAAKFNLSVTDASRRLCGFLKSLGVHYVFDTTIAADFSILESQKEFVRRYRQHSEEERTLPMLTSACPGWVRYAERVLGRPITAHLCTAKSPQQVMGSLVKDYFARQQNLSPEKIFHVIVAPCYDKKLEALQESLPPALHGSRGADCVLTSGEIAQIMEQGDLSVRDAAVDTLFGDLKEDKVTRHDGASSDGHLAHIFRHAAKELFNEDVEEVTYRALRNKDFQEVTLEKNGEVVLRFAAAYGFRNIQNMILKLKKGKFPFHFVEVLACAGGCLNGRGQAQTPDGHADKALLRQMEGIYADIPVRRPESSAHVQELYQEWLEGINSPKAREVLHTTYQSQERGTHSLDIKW
UniProt P54920: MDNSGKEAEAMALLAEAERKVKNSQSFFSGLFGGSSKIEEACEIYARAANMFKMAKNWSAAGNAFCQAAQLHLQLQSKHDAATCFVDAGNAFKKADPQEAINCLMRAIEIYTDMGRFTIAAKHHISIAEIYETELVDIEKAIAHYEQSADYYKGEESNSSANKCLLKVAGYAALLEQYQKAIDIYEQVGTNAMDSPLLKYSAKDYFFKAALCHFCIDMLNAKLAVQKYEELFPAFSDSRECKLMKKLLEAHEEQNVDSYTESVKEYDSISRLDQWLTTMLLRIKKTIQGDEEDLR
UniProt P56556, whole entry, looked up: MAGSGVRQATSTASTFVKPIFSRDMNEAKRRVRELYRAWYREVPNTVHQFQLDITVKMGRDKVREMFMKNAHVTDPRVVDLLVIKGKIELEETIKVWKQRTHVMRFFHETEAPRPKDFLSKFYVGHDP
UniProt Q9UGV2: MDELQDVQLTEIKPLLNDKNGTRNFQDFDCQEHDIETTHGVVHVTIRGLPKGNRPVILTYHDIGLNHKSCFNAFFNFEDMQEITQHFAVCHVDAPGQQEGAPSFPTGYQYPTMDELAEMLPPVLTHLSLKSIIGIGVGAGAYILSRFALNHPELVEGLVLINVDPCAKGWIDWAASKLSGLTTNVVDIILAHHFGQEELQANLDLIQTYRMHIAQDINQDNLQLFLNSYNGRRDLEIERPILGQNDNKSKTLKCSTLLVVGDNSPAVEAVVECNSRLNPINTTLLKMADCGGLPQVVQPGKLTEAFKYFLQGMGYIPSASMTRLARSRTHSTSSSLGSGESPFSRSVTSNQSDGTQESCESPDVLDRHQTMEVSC
UniProt P56181: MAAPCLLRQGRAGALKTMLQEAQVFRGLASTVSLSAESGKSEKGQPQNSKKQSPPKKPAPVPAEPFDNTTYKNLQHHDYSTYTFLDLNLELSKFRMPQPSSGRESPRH
UniProt O00483, whole entry, looked up: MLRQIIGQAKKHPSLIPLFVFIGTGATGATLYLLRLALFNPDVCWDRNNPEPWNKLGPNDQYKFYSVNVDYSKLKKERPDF
UniProt O95298, whole entry, looked up: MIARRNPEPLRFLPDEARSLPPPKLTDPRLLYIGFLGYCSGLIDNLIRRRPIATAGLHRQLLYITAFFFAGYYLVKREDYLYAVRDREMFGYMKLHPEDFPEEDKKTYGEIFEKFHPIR
UniProt O00217, whole entry, looked up: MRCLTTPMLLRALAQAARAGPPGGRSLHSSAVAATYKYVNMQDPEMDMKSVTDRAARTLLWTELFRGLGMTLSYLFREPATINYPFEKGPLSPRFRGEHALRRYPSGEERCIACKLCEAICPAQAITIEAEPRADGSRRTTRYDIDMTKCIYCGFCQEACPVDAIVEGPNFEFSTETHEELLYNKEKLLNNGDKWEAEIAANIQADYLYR
UniProt O76041: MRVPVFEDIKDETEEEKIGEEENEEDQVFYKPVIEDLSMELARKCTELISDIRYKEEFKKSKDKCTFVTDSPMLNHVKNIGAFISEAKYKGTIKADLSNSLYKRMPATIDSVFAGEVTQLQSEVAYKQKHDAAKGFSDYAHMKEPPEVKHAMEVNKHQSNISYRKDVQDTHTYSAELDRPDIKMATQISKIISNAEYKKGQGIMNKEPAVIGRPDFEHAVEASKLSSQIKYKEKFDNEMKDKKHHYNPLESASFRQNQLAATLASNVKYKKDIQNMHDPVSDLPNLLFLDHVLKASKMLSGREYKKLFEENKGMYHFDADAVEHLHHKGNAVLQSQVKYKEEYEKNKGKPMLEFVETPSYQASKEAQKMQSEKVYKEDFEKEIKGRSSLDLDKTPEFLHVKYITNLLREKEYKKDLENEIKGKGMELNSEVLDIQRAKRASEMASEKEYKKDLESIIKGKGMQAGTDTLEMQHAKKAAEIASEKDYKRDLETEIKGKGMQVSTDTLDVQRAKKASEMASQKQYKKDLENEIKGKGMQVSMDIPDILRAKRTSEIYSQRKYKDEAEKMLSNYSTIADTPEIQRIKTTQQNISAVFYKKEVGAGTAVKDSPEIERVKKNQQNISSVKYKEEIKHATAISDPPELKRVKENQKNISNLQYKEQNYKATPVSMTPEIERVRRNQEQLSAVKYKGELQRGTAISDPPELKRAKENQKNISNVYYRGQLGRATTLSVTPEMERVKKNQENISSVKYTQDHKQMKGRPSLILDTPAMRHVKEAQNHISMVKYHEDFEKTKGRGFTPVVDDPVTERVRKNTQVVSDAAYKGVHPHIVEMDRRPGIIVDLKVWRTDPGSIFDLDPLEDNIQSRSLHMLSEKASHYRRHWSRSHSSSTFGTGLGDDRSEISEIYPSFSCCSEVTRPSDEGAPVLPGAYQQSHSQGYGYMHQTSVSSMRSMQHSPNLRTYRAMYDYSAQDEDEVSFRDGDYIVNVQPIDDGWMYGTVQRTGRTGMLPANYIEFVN
UniProt O43676, whole entry, looked up: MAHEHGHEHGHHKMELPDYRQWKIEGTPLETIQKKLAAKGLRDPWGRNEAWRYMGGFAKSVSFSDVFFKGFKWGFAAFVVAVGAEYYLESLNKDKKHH
UniProt Q330K2: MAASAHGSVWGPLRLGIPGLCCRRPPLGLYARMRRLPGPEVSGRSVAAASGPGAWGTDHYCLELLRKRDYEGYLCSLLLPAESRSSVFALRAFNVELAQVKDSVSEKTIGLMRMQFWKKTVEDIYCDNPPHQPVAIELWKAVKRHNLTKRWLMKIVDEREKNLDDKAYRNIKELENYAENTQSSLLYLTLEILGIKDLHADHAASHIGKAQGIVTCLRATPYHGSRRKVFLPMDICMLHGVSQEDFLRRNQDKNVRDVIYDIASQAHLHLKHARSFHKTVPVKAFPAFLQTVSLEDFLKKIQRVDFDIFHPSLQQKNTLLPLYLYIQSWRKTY
UniProt P19404, whole entry, looked up: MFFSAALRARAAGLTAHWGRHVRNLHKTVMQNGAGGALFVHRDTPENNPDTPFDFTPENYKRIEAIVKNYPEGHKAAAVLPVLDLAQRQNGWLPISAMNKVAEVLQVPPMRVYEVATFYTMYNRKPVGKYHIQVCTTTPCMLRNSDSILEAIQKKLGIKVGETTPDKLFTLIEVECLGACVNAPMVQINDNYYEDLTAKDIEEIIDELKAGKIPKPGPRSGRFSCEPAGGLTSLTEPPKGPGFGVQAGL
UniProt P49821, whole entry, looked up: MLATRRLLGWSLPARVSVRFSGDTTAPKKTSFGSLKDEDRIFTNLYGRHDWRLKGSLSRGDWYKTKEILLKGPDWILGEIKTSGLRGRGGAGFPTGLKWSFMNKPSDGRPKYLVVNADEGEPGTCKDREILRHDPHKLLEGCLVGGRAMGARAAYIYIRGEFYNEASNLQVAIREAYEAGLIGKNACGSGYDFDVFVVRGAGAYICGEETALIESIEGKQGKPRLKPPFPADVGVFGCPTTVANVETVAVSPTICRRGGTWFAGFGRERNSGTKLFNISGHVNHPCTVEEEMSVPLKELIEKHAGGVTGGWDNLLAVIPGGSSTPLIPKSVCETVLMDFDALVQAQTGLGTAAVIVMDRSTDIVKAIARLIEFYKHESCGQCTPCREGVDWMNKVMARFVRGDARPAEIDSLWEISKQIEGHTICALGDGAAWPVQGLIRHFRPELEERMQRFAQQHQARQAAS
UniProt P19338, whole entry, looked up: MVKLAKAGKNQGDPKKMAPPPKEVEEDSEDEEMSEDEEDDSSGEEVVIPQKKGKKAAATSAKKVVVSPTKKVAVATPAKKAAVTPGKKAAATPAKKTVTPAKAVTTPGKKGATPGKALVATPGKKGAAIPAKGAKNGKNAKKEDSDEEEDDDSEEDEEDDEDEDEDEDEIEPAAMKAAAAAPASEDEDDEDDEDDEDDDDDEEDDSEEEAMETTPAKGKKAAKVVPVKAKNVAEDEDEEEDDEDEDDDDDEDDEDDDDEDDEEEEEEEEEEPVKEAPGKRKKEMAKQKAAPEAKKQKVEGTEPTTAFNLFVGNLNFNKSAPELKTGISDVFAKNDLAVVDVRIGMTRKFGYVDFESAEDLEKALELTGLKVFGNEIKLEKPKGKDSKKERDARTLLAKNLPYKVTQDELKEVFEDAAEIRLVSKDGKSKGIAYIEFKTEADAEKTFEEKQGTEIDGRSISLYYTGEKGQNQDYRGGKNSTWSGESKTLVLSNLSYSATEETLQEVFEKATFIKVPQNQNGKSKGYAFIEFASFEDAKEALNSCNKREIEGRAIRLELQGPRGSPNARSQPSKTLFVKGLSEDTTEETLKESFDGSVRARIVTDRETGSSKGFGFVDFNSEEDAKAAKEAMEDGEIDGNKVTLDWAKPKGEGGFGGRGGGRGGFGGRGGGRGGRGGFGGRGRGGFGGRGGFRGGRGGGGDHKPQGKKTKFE
UniProt Q96RE7: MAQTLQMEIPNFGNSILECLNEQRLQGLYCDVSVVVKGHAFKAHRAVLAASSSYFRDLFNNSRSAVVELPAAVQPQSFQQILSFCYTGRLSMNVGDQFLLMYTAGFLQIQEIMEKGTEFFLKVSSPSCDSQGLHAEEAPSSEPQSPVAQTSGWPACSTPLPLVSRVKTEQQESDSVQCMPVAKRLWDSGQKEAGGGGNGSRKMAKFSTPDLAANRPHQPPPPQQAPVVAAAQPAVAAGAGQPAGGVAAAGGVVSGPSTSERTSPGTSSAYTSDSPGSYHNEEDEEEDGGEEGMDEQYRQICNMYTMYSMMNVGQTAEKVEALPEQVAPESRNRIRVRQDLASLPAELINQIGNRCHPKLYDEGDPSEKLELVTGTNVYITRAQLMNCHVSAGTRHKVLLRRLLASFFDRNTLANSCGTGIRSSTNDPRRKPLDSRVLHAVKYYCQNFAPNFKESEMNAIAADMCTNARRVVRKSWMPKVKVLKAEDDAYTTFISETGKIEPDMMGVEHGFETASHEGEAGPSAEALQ

[2] = compound: CC1=C(SC2=C1C(=N[C@H](C3=NN=C(N32)C)CC(=O)N)C4=CC=C(C=C4)Cl)C
Procedure, shortened: as §1

[3] = compound: CC1=C2C(=CC=C1)N=C(N(C2=O)C3=CC=CC=C3C)CN4C=NC5=C(N=CN=C54)N
Procedure, shortened: as §1

[4] = compound: Cc1sc2c(c1C)C(c1ccc(Cl)cc1)=N[C@@H](CC(=O)OC(C)(C)C)c1nnc(C)n1-2
Procedure, shortened: as §1

[5] = compound: c1ccc([C@@H]2C[C@H]2NC2CCNCC2)cc1
Procedure, shortened: as §1

Measured: log2 fold change

NECTIN2 (UniProt Q92692)
inactive: [1] 0.017 | [2] 0.031 | [3] -0.019 | [4] -0.009 | [5] -0.012

NDUFS3 (UniProt O75489)
inactive: [1] -0.008 | [2] 0.006 | [3] 0.03 | [4] -0.048 | [5] -0.025

NDE1 isoform 1 (UniProt Q9NXR1)
inactive: [1] -0.003 | [2] 0.04 | [3] 0.05 | [4] 0.007 | [5] 0.038

NAP1L1 (UniProt P55209)
inactive: [1] -0.072 | [2] 0.003 | [3] 0.17 | [4] 0.013 | [5] 0.009

NCAPG (UniProt Q9BPX3)
inactive: [1] -0.033 | [2] 0.019 | [3] 0.101 | [4] -0.002 | [5] -0.002

NCOR2 (UniProt C9J0Q5)
inactive: [1] -0.019 | [2] -0.035 | [3] 0.143 | [4] -0.049 | [5] 0.024

NAA16 (UniProt Q6N069)
inactive: [1] 0.008 | [2] 0.012 | [3] 0.002 | [4] 0.009 | [5] 0.003

NARF (UniProt Q9UHQ1)
inactive: [1] -0.014 | [2] -0.028 | [3] 0.043 | [4] 0 | [5] 0.031

NAPA (UniProt P54920)
inactive: [1] -0.03 | [2] 0.016 | [3] 0.007 | [4] -0.045 | [5] -0.015

NDUFA6 (UniProt P56556)
inactive: [1] -0.017 | [2] 0.121 | [3] 0.104 | [4] -0.067 | [5] -0.039

NDST1 (UniProt P52848)
inactive: [1] 0 | [2] -0.152 | [3] 0.098 | [4] -0.045 | [5] -0.036

NDRG3 (UniProt Q9UGV2)
inactive: [1] -0.032 | [2] -0.094 | [3] 0.027 | [4] 0.041 | [5] -0.022

NDUFV3 isoform 2 (UniProt P56181)
inactive: [1] 0.031 | [2] -0.002 | [3] -0.042 | [4] 0.022 | [5] 0.066

NDUFA4 (UniProt O00483)
inactive: [1] 0 | [2] 0.005 | [3] 0.014 | [4] -0.031 | [5] 0.046

NDUFC2 (UniProt O95298)
inactive: [1] -0.001 | [2] 0.097 | [3] 0.026 | [4] -0.126 | [5] -0.002

NDUFS8 (UniProt O00217)
inactive: [1] -0.049 | [2] 0.1 | [3] 0.082 | [4] -0.023 | [5] -0.02

NEBL isoform 2 (UniProt O76041)
inactive: [1] 0.047 | [2] -0.016 | [3] 0.062 | [4] 0.021 | [5] 0.019

NDUFB3 (UniProt O43676)
inactive: [1] 0.04 | [2] 0.014 | [3] 0.024 | [4] -0.006 | [5] 0.052

NDUFAF6 (UniProt Q330K2)
inactive: [1] -0.048 | [2] 0.003 | [3] -0.006 | [4] 0.063 | [5] 0.024

Random excerpt: two records from the list, in no set order.
NDUFC2 (UniProt O95298)
inactive: [1] -0.001 | [2] 0.097 | [3] 0.026 | [4] -0.126 | [5] -0.002

NDUFS8 (UniProt O00217)
inactive: [1] -0.049 | [2] 0.1 | [3] 0.082 | [4] -0.023 | [5] -0.02

Going on with the list.

NDUFV2 (UniProt P19404)
inactive: [1] 0.019 | [2] 0.028 | [3] -0.035 | [4] -0.011 | [5] 0.007

NDUFV1 (UniProt P49821)
inactive: [1] -0.018 | [2] 0.05 | [3] 0.048 | [4] -0.014 | [5] -0.045

NCL (UniProt P19338)
inactive: [1] 0.158 | [2] -0.365 | [3] -0.299 | [4] 0.227 | [5] 0

NACC1 (UniProt Q96RE7)
inactive: [1] -0.029 | [2] 0.039 | [3] 0.092 | [4] -0.037 | [5] -0.015

NDRG2 (UniProt Q9UN36)
inactive: [1] -0.01 | [2] 0.001 | [3] -0.065 | [4] -0.031 | [5] 0.012
